Test [1] deals with T1, endogenous L3MBTL3 (human (endogenous in HepG2)) (UniProt Q96JM7).
T1 sequence: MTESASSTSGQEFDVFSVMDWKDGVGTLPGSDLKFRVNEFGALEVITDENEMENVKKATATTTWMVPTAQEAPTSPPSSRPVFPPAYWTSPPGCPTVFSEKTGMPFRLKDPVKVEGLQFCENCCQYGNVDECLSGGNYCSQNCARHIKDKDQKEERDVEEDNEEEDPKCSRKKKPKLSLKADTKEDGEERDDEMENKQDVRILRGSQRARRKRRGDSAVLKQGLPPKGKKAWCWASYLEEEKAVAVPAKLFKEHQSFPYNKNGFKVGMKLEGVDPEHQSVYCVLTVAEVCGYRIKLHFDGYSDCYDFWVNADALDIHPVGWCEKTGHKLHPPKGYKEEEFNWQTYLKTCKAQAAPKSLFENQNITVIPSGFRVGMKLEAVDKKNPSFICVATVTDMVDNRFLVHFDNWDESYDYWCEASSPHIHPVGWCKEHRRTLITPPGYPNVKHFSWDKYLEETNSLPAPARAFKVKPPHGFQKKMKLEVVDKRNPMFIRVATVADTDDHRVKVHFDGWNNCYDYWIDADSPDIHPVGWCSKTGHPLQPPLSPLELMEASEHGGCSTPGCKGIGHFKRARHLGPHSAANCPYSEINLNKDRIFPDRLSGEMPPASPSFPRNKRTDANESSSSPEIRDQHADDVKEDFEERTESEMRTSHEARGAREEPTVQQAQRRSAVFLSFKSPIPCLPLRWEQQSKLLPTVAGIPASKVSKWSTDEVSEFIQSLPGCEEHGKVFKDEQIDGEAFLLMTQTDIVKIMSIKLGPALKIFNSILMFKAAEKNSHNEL
Briefly: co-IP; endogenous proteins; hypoxia cultured HepG2 cells, nucleus and cytoplasm separated; precipitated with IgG, anti-L3MBTL3 or anti-HIF-1α antibodies and protein G.

Chains of the proteins cited; added tags and fusions are not shown.
UniProt Q16665: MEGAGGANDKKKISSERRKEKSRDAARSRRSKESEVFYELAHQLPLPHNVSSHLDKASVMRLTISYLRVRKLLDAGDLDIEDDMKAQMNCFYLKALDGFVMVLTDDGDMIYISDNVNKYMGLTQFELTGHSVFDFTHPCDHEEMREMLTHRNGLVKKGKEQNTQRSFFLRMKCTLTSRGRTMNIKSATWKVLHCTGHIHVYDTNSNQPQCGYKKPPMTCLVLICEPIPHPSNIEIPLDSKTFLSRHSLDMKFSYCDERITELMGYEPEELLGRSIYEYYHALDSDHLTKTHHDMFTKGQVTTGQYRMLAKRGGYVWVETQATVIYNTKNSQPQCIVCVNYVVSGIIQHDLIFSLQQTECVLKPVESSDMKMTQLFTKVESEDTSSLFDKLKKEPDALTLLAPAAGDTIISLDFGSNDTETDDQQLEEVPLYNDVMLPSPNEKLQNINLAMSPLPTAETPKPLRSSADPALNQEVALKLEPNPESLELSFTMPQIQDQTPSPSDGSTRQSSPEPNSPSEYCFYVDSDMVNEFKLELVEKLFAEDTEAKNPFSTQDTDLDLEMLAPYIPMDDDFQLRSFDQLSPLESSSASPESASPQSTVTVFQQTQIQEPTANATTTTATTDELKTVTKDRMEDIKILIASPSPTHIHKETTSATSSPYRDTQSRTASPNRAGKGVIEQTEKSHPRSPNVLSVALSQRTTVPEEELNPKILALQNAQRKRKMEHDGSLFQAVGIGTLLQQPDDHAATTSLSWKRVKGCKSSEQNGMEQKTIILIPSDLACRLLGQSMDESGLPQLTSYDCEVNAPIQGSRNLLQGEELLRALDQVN

For test [2], the target named is T2, FLAG-tagged human whole L3MBTL3 (human) (UniProt Q96JM7).
T2 sequence: T1 sequence
Nature of the test: co-IP; HepG2 cells transfected with Flag-L3MBTL3 and HA-HIF-1α, normoxia or hypoxia (1% O2) 12 h; lysates precipitated with anti-Flag beads, 6 h at 4 °C.

Test [3] has as its target T2, FLAG-tagged human whole L3MBTL3 (human). Briefly: co-IP; 293T cells transfected with HA-HIF-1α and Flag-tagged wild-type L3MBTL3 or deletion mutants; lysates precipitated with anti-Flag (M2) beads.

No constants are given. Whether binding was seen depends on the method and setting. Binding seen in cells or lysates may run through a third protein. Some results given as binding are weak or reduced against the parent protein; the word gives no strength. For part of these data: Where a sequence is shown, tags or fusion partners need not be part of it.

In the case of “endogenous HIF-1α (from UniProt Q16665 1-826)”, the binding result in test [1] is “binds”. In the case of “HA-tagged human whole HIF-1α (from UniProt Q16665 1-826)”, the binding entry in test [2] and in test [3] was “binds” throughout.

The record behind these values is paper PMC9898070.
